From PubChem BioAssay record AID1159506 (NCATS, 2015).

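Luminescence from an EWS-FLI1 target-promoter (NR0B1) reporter, set against a CMV-promoter reporter, two days after silencing single genes in TC32 Ewing sarcoma cells.
Each siRNA was applied at 20 nM.
A z-score of the log NR0B1-over-CMV signal, less the median of siRNAs with the same seed; more negative means a stronger specific loss of the NR0B1 reporter.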

This is part of the screen; most of the strongest results are not listed here.
Sequences are the guide (antisense) strand, without overhang.

| # | Sequence | target gene | seed-corrected z-score |
|---|---|---|---|
| 1 | `UCUGCUACCAAGCAAGACU` | PRR14L | 0.9301 |
| 2 | `UAUGUGGUCAGCUUCCAUG` | PFAS | -0.009896 |
| 3 | `UUUCAGGUACGUGUAGUGC` | UNK | -0.6824 |
| 4 | `UUGGCUUUCCGCUUGCGCU` | TMEM200C | 0.4972 |
| 5 | `AAAAGAUACAGAUCGUACC` | WSB1 | 0.9433 |
| 6 | `UUUGGUGUGAGGAUCCAAG` | NID2 | 0.01576 |
| 7 | `UUGUUGUAGCCUUCAGUGC` | PCSK4 | -0.2617 |
| 8 | `AGGUCUAGGAUUUUCAUUC` | C2orf66 | 0.1125 |
| 9 | `UGUUUAGUAACCCAGGUAG` | HNRNPU | -0.4771 |
| 10 | `UCUCGUAUUCUGGUUUUGC` | CCP110 | 0.2579 |
| 11 | `AAUCGUUCAUCUUCUAGAC` | CCDC186 | 0.9165 |
| 12 | `UUUUCGAAAGUUCUGAAAG` | LOC729291 | 0.3923 |
| 13 | `UCAUAUCCCAAGAUCGCUG` | UQCC1 | -0.1606 |
| 14 | `UAUGUCCCAAGGGCUCUUG` | LIPI | 0.6566 |
| 15 | `UUCGCGUGUGGACAUGUCC` | PITX2 | -0.0724 |
| 16 | `UAAUGAGCGAAUGCUCCCG` | LMAN2 | -0.1201 |
| 17 | `UGUUUAUCAGUGGUAAAUC` | KLHDC2 | 0.8588 |
| 18 | `UCAAGAUUUUGUUAGGACC` | CD96 | 0.09399 |
| 19 | `UCUGGUAAAGAAUGCAUGU` | DISC1 | -0.3703 |
| 20 | `UUUGCGGUGUAAUACUUCC` | HMGCLL1 | -0.4725 |
| 21 | `UUAAUAGUCACAGAUUGUU` | SKP1 | 0.7244 |
| 22 | `UUAGCAUCCAGUCCAAUUC` | DGKK | -0.3684 |
| 23 | `UGAUGUGCAACUGAAGCAG` | CTAG2 | -0.06032 |
| 24 | `UGAAGUUGGACAGGUUUUC` | CNN2 | -0.127 |
| 25 | `UGAUUAGGAGCAAAGAUUC` | RPL18AP16 | 0.6315 |
| 26 | `UACUCAGUGAUGAUCAUCA` | EPHA2 | -0.4385 |
| 27 | `UUCUGGUGCAGUAGGAGAC` | RTN4R | -0.008501 |
| 28 | `UUGGAUACAUUCCUAGUUG` | LCA5 | -0.05236 |
| 29 | `ACCGGAACUAUAUUACUGC` | IL18R1 | 0.3408 |
| 30 | `AUUUGGAAAGGCAACACGC` | P2RY8 | 0.6496 |
| 31 | `UUCCCGUCCAUUAUGAAUG` | DHDDS | 0.5951 |
| 32 | `UCCAGCUUAAGCACAGUGC` | PKN1 | -0.2362 |
| 33 | `UGAGGAAACGUGGUGUUGC` | SH2D3C | 0.05744 |
| 34 | `AAACGGUUGAAGUAGAUGC` | GRK6 | -1.418 |
| 35 | `AGCUAUGUAAGGUAAGUUC` | MERTK | -0.413 |
| 36 | `UUUCCGUUUCAUAUCACUC` | NVL | 0.4322 |
| 37 | `UAUGCAAAAACAUUAAUAC` | MARCKS | 0.002682 |
| 38 | `ACAGGAACUAGCAUAGGUC` | SPARCL1 | 0.08311 |
| 39 | `UUUAUUUCUCUCAGAACUU` | NDUFB1 | 0.1098 |
| 40 | `AUUUGUUCCACCUCCUUCC` | EMC6 | 2.123 |
| 41 | `UUGGUGACGAAGAUGAUUG` | CCL16 | -0.4285 |
| 42 | `UGAUCAGCUACUACUCGGC` | TMEM68 | 0.523 |
| 43 | `UUAGAGAUUUUGUAGAGAC` | GPR137B | 0.6773 |
| 44 | `UUGAUGACCCGGUUCAUCU` | ATP1B2 | 0.6939 |
| 45 | `AAGCGAACUGGUGACAUGG` | OSBPL6 | -0.0216 |
| 46 | `UAUGGGACACGCUGAAGCC` | GUK1 | 0.2419 |
| 47 | `UACGGAUGUAGAAUGGAUG` | VHL | 0.06733 |
| 48 | `UGAAUGUCUCGUGCACUCC` | FAH | -0.3964 |
| 49 | `UUCUGGAGACUGUAUUUGC` | CENPM | -0.6077 |
| 50 | `ACCGUUAUUAUAAGGUUGC` | RELN | 0.006384 |
| 51 | `ACUGUGAUAAUUCAACUGC` | UQCRFS1 | 1.162 |
| 52 | `UUCUUUAGAGCAAUCAGGG` | IGHMBP2 | 0.1266 |
| 53 | `AUAGUAGUACUCAUUGUGA` | VANGL2 | 1.427 |
| 54 | `UCUUCAUGAAGUACGGGUC` | SF3A2 | 0.243 |
| 55 | `UCUUGUCUGAAGAGAAUCC` | FRRS1L | 1.209 |
| 56 | `UUAGUUACUAAGGGUUUAG` | RAPH1 | 0.6757 |
| 57 | `UGAGAUGUCAUAUCCCAGC` | POPDC2 | 0.1289 |
| 58 | `UUUCUUGCAAGGGUACAGG` | PTAFR | -0.5988 |
| 59 | `AUAGAGCCCGUAGUUGUUC` | SUMF2 | 0.01287 |
| 60 | `UCUAGAUGCAGGUUGGUUG` | TRIM33 | -0.1255 |
| 61 | `UUUCUGACCACUCAUGGGA` | VSTM1 | -0.09349 |
| 62 | `UCUGAUUCUAAACCUUUCG` | FGD5 | 0.06955 |
| 63 | `AAGCUGUUCAGAACUACUG` | CCL15 | -0.7479 |
| 64 | `AACAUAUCUCAUUAUAUCC` | ETF1 | -0.002581 |
| 65 | `UUCUGGAGGUGGAUUAAGU` | SCGB1D4 | 0.0535 |
| 66 | `UUUAAUAGCAGUUGCAUCG` | EFCAB3 | -0.3903 |
| 67 | `AUAACGAUACAGAAAAGUC` | DENND4A | -0.5785 |
| 68 | `UGUGAUCUCACACCAAGCC` | NIPAL1 | 0.7514 |
| 69 | `UAAGAAGAGAUGCAGUUCC` | AMPD2 | 1.225 |
| 70 | `AGAUAUUAAAGUCCUCAGC` | TPRA1 | -0.2566 |
| 71 | `UUCCUCUCAAUGCUAAUUC` | GOLPH3 | 0.01723 |
| 72 | `UUGUAUUCAACAGCGGUGG` | ZNF658 | -1.971 |
| 73 | `UGGUUUACAACCUAAAUGU` | PLA2G12A | 0.1005 |

9 of the entries, repeated:

| Sequence | target gene | seed-corrected z-score |
|---|---|---|
| `UAUGGGACACGCUGAAGCC` | GUK1 | 0.2419 |
| `UUUAUUUCUCUCAGAACUU` | NDUFB1 | 0.1098 |
| `UAUGUCCCAAGGGCUCUUG` | LIPI | 0.6566 |
| `UUCGCGUGUGGACAUGUCC` | PITX2 | -0.0724 |
| `UUGUAUUCAACAGCGGUGG` | ZNF658 | -1.971 |
| `UACGGAUGUAGAAUGGAUG` | VHL | 0.06733 |
| `UUGGUGACGAAGAUGAUUG` | CCL16 | -0.4285 |
| `UUCUGGAGGUGGAUUAAGU` | SCGB1D4 | 0.0535 |
| `UUCCUCUCAAUGCUAAUUC` | GOLPH3 | 0.01723 |